# The other results are listed elsewhere or left out. Further columns of the screen follow, without active or inactive calls. Most of these compounds were active or inconclusive in the main read-out, so they are no random draw. Words in brackets tell the shape of the fitted curve; partial curves, single points and poor fits give uncertain potencies.
# Test: Cell signaling CRE-BLA (Fsk stim)
# Conditions: CHO CRE-bla reporter (cAMP response element driving beta-lactamase), forskolin EC10, beta-lactamase ratio; measured here: 460 nm blue channel
# Summary of the method: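 CRE-bla CHO reporter cells treated with compound titration plus EC10 NKH 477 (water-soluble forskolin), incubated 3 h at 37 °C; CCF4 loading 2 h at room temperature, 460/530 nm emission ratio read, AC50 values derived for positive or negative modulators.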
row,Compound,AC50
1,O=C(COC(=O)c1cc(-c2ccco2)nc2ccccc12)NCc1ccc2c(c1)OCO2,"10 µM [rising, partial curve]"
2,CCOc1cc2[nH]c(=S)n(CCOC)c(=O)c2cc1OCC,"10 µM [rising, single point]"
3,Cc1ccc(S(=O)(=O)Oc2ccc(N=Nc3ccc(-c4ccc(N=Nc5c(O)ccc6cc(S(=O)(=O)O)cc(S(=O)(=O)O)c56)c(C)c4)cc3C)cc2)cc1,"0.316 µM [falling, full curve]"
4,CCOC(=O)Cc1c(C)c2c(O)cc(O)cc2oc1=O,"10 µM [rising, partial curve]"
5,O=C(Cn1[nH]c(=O)c2ccccc2c1=O)Nc1cccc(-c2nnc3n2CCCCC3)c1,"0.631 µM [falling, full curve, poor fit]"
6,CCCCCn1c(CN2CCN(c3cccc(Cl)c3)CC2)nc2c1c(=O)n(C)c(=O)n2C,"12.6 µM [rising, partial curve]"
7,COc1ccc(CCN(Cc2nc3ccccc3c(=O)[nH]2)C(=O)c2ccco2)cc1,"10 µM [rising, partial curve]"
8,CCOC(=O)c1cnc(-n2nc(C)cc2C)nc1NCc1ccc2c(c1)OCO2,"12.6 µM [falling, partial curve, poor fit]"
9,O=C(c1ccc(-c2ccccc2)cc1)N1CCN(c2ncccn2)CC1,"10 µM [rising, single point]"
10,CCCCNc1nc(N(C)c2ccccc2)nc(-n2ccnc2)n1,"1.26 µM [rising, partial curve]"
11,OC(CN1CCN(c2cccc(C(F)(F)F)c2)CC1)c1c[nH]c2ccccc12 (stereo unspecified),"6.31 µM [falling, partial curve, poor fit]"
12,COc1ccccc1NC(=O)N1CCn2c(nc3ccccc32)C1,"10 µM [rising, partial curve, poor fit]"
13,CCCC(=O)Nc1ncnc2c1ncn2[C@@H]1O[C@H]2COP(=O)(O)O[C@@H]2[C@@H]1OC(=O)CCC,"3.98 µM [rising, full curve, poor fit]"
14,C=C(Cl)COc1ccc2c(C)cc(=O)oc2c1,"1.26 µM [rising, partial curve]"
15,O=C(NC1CCCCCC1)c1cc(S(=O)(=O)N2CCC3(CC2)OCCO3)ccc1F,"3.16 µM [rising, full curve]"
16,Cc1ccc(S(=O)(=O)/N=C(/Nc2nc(C)cc(C)n2)N2CCOCC2)cc1,"0.01 µM [rising, full curve, poor fit]"
17,CSc1nc2ccc(S(=O)(=O)Nc3c(C)n(C)n(-c4ccccc4)c3=O)cc2s1,"15.8 µM [falling, partial curve]"
18,CC(C)NS(=O)(=O)c1ccc(OCC(=O)NCc2ccccc2)cc1,"25.1 µM [rising, single point]"
19,O=C(Nc1nc(-c2ccc(S(=O)(=O)N3CCCC3)cc2)cs1)C1COc2ccccc2O1 (stereo unspecified),"12.6 µM [falling, partial curve]"
20,CS(=O)(=O)Nc1cccc(-c2nc(NCc3ccccc3)c3ccccc3n2)c1,"6.31 µM [rising, partial curve]"
21,CCOC(=O)Nc1ccc2c(c1)N(C(=O)CCN1CCOCC1)c1ccccc1S2=O (stereo unspecified),"25.1 µM [falling, partial curve]"
22,COc1ncc2nc(-c3ccccc3)c(=O)n(C3CC3)c2n1,"12.6 µM [rising, partial curve]"

row,Compound,AC50
1,O=C(NCc1ccco1)c1cc2nc(C3CC3)cc(C(F)(F)F)n2n1,"10 µM [rising, partial curve]"
2,O=c1onc2cnc3ccccc3n12,"12.6 µM [rising, partial curve, poor fit]"
3,C=CCOC(=O)C1=C(C)NC(SCC(=O)OCC)=C(C#N)C1c1ccc(O)c(OC)c1 (stereo unspecified),"12.6 µM [rising, single point]"
4,COc1ncc2nc(-c3cc(F)cc(F)c3)c(=O)n(C3CC3)c2n1,"20 µM [rising, single point]"
5,CCCCNC(=O)CN(C1CCCCC1)S(C)(=O)=O,"0.0251 µM [falling, full curve]"
6,Cc1cc(SCC(=O)Nc2c(C)n(C)n(-c3ccccc3)c2=O)n2c(nc3ccccc32)c1C#N,"20 µM [rising, single point]"
7,O=S(=O)(Nc1cccc(-c2nc3cccnc3s2)c1)c1ccc2c(c1)OCCO2,"3.16 µM [rising, partial curve]"
8,O=C(Nc1cc(C(F)(F)F)ccc1Cl)C1CCN(c2nnc(-n3cccc3)s2)CC1,"12.6 µM [falling, single point]"
9,Cc1cccc(-n2c(SCc3cc(=O)n4ccsc4n3)nc3ccccc32)c1,"1.26 µM [rising, partial curve]"
10,O=S(=O)(c1cccc(-c2nnc(SCc3nc4ccccc4s3)o2)c1)N1CCOCC1,"12.6 µM [rising, single point]"
11,O=C(Nc1nnc(C2CCCC2)s1)C1CCN(S(=O)(=O)c2ccc(Cl)cc2)CC1,"0.00398 µM [falling, full curve, poor fit]"
12,COC(=O)c1[nH]c2cc(OC)c(OC)cc2c1NC(=O)CN1CCN(Cc2ccccc2)CC1,"12.6 µM [rising, single point]"
13,Cn1c(=O)c2c(SCc3cccnc3)nc(C3CC3)nc2n(C)c1=O,"3.98 µM [rising, full curve]"
14,COc1cc(-c2nc(-c3ccc(Br)o3)no2)cc(OC)c1OC,"2.51 µM [rising, full curve]"
15,CCOC(=O)c1oc2ccccc2c1CSc1nnnn1-c1ccc(OC)cc1,"1.26 µM [rising, full curve]"
16,O=C(Nc1cccnc1)C1CCCN1S(=O)(=O)c1ccc(Cl)c(Cl)c1 (stereo unspecified),"0.00398 µM [falling, full curve, poor fit]"
17,CCN1CCN(Cc2nc3c(c(=O)n(C)c(=O)n3C)n2CCc2ccccc2)CC1,"10 µM [rising, single point]"
18,CCCCCn1c(=NC(C)=O)c(C#N)cc2c(=O)n3ccccc3nc21,"2.51 µM [rising, full curve]"
19,c1ccc(CCNc2ncnc3nc[nH]c23)cc1,"12.6 µM [falling, partial curve]"
20,COc1ccc2nc(NC(=O)C3CCCN(S(=O)(=O)c4c(C)noc4C)C3)sc2c1 (stereo unspecified),"12.6 µM [rising, partial curve]"
21,CCOc1cc(N2CCOCC2)c(OCC)cc1NC(=O)c1nc2nccc(C)n2n1,"12.6 µM [rising, single point]"
22,COc1ccc(-c2noc(-c3ccccc3C(=O)Nc3cccnc3)n2)cc1OC,"10 µM [rising, partial curve]"

# Exported tab-delimited: entries from further up
row	Compound	AC50
5	O=C(Cn1[nH]c(=O)c2ccccc2c1=O)Nc1cccc(-c2nnc3n2CCCCC3)c1	0.631 µM [falling, full curve, poor fit]
16	Cc1ccc(S(=O)(=O)/N=C(/Nc2nc(C)cc(C)n2)N2CCOCC2)cc1	0.01 µM [rising, full curve, poor fit]
16	O=C(Nc1cccnc1)C1CCCN1S(=O)(=O)c1ccc(Cl)c(Cl)c1 (stereo unspecified)	0.00398 µM [falling, full curve, poor fit]
21	CCOc1cc(N2CCOCC2)c(OCC)cc1NC(=O)c1nc2nccc(C)n2n1	12.6 µM [rising, single point]

# Carrying on:

row,Compound,AC50
1,COc1cccc(CNC(=O)C2CCCN(S(C)(=O)=O)C2)c1 (stereo unspecified),"2.51 µM [falling, full curve]"
2,COc1cccc(Nc2ncc3ncc(=O)n(C[C@H]4CCCO4)c3n2)c1,"0.794 µM [falling, full curve]"
3,COc1cc(OC)cc(-c2nc3nc(C)c(CCC(=O)O)c(C)n3n2)c1,"0.1 µM [falling, full curve]"
4,CCCCCOC(=O)c1cc(=O)[nH]c2ccccc12,"12.6 µM [rising, single point]"
5,CC(=O)COc1ccc2c3c(c(=O)oc2c1)CCCC3,"10 µM [rising, single point]"
6,CCOC(=O)c1sc(N)c(C#N)c1COC(=O)CNC(=O)c1ccccc1,"20 µM [rising, single point]"
7,COC(=O)c1ccc(OCC2c3cc(OC)c(OC)cc3CCN2C(=O)C2CC2)cc1 (stereo unspecified),"3.98 µM [rising, partial curve]"
8,COc1ccc(CN(Cc2cc3ccc(C)cc3[nH]c2=O)Cc2nnnn2C2CCCC2)cc1,"25.1 µM [falling, single point]"
9,CC(=O)N1CCc2c(sc(NC(=O)c3ccc4c(c3)OCCO4)c2C#N)C1,"12.6 µM [rising, single point]"
10,CN(C)c1ccc(-c2cc(-n3ccnc3)ncn2)cc1,"10 µM [rising, partial curve]"
11,COc1ccc(OC)c(-n2cc3c(=O)n(C)c(=O)n(C)c3c2)c1,"12.6 µM [rising, single point]"
12,COc1cccc(-c2nc(N3CCN(C)CC3)c3ccccc3n2)c1,"7.94 µM [rising, partial curve]"
13,CNC1=C(Br)C(=O)c2ccncc2C1=O,"3.98 µM [falling, partial curve]"
14,COc1ccc(C(=O)N2c3ccc(F)cc3CCC2C)cc1OC (stereo unspecified),"25.1 µM [rising, single point]"
15,COc1cc(SC)ccc1C(=O)Nc1ccc2c(c1)CCN2S(C)(=O)=O,"12.6 µM [rising, partial curve]"
16,Cc1nn(S(=O)(=O)N(C)C)c(C)c1CN1C(=O)c2ccccc2C1=O,"3.16 µM [rising, single point]"
17,O=C1c2cccnc2C(O)N1Cc1ccc(F)cc1 (stereo unspecified),"31.6 µM [falling, single point]"
18,CCn1cc(C(=O)NCc2cccs2)c(=O)c2ccc(C)nc21,"3.98 µM [rising, partial curve]"
19,O=S(c1ccccc1)c1ccc2nnnn2n1 (stereo unspecified),"12.6 µM [falling, partial curve]"
20,O=C(CCc1ccccc1)Nc1nc2n(n1)C(c1ccc(Cl)cc1)CC(=O)N2 (stereo unspecified),"3.16 µM [falling, single point]"
21,CCn1c(=N)c(C(=O)OC)cc2c(=O)n3ccccc3nc21,"3.16 µM [rising, partial curve]"
22,Cc1cc(=O)oc2c(CN3CCOCC3)c(O)ccc12,"12.6 µM [rising, partial curve]"

# Reference: PubChem BioAssay AID662 (National Center for Advancing Translational Sciences (NCATS), 2007)
